Our source for the binding values is article PMC5574038.

Chains of the proteins cited; added tags and fusions are not shown.
UniProt P49674: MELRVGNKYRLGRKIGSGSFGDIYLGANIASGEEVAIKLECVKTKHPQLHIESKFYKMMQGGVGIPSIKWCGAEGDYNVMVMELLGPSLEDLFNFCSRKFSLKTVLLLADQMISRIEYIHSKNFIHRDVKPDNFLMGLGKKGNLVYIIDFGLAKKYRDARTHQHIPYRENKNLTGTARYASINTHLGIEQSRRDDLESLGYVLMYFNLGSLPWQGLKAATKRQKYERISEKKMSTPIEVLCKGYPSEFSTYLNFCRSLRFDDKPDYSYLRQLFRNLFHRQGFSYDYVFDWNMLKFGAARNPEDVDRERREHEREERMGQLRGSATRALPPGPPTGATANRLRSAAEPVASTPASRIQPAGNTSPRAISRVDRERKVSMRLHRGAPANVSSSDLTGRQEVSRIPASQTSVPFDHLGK
UniProt O15169: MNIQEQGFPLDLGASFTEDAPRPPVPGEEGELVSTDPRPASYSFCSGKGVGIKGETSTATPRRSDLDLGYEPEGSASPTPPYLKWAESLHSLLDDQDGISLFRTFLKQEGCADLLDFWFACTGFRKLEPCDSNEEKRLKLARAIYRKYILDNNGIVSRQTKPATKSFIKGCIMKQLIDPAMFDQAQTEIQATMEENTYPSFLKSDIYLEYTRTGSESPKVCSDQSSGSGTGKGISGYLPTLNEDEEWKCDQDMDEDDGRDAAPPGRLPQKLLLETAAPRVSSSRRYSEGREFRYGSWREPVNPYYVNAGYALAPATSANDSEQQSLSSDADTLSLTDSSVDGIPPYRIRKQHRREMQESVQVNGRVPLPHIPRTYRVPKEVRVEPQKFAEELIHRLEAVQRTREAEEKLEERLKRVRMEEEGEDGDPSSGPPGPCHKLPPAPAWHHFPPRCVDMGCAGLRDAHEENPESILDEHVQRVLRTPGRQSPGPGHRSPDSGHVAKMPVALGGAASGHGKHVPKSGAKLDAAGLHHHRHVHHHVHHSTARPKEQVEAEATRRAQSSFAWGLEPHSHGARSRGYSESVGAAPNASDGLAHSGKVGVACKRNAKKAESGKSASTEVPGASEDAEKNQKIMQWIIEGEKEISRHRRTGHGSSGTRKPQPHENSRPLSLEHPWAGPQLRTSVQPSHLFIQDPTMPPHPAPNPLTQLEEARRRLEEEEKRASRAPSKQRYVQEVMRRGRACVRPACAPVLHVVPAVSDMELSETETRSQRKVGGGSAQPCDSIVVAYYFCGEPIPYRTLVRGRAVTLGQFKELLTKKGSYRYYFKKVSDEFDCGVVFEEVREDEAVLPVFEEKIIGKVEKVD

Positions count from the first letter of the chain named. Names and notes keep the numbering of the source. Results are given in words; binding and its absence hold for the method and conditions named. In cells and extracts the contact can be indirect. Some binding calls cover weakened binding; strength is not graded here. Sequences can lack the tags named with a protein.

B1: DVL1(1–502) (pcDNA3-Flag-mDVL1 aa 1 to 502) (domain or fragment, UniProt P51141 1-502)
chain: MAETKIIYHMDEEETPYLVKLPVAPERVTLADFKNVLSNRPVHAYKFFFKSMDQDFGVVKEEIFDDNAKLPCFNGRVVSWLVLAEGAHSDAGSQGTDSHTDLPPPLERTGGIGDSRPPSFHPNVASSRDGMDNETGTESMVSHRRERARRRNRDEAARTNGHPRGDRRRDLGLPPDSASTVLSSELESSSFIDSDEEDNTSRLSSSTEQSTSSRLVRKHKCRRRKQRLRQTDRASSFSSITDSTMSLNIITVTLNMERHHFLGISIVGQSNDRGDGGIYIGSIMKGGAVAADGRIEPGDMLLQVNDVNFENMSNDDAVRVLREIVSQTGPISLTVAKCWDPTPRSYFTIPRADPVRPIDPAAWLSHTAALTGALPRYGTSPCSSAITRTSSSSLTSSVPGAPQLEEAPLTVKSDMSAIVRVMQLPDSGLEIRDRMWLKITIANAVIGADVVDWLYTHVEGFKERREARKYASSMLKHGFLRHTVNKITFSEQCYYVFGDLCS
B2: DVL1(1–502) K438M mutant (domain or fragment, UniProt P51141 1-502)
chain: B1 chain with K438M
B3: DVL1(1–502) ΔLPDSG mutant (domain or fragment, UniProt P51141)
chain: MAETKIIYHMDEEETPYLVKLPVAPERVTLADFKNVLSNRPVHAYKFFFKSMDQDFGVVKEEIFDDNAKLPCFNGRVVSWLVLAEGAHSDAGSQGTDSHTDLPPPLERTGGIGDSRPPSFHPNVASSRDGMDNETGTESMVSHRRERARRRNRDEAARTNGHPRGDRRRDLGLPPDSASTVLSSELESSSFIDSDEEDNTSRLSSSTEQSTSSRLVRKHKCRRRKQRLRQTDRASSFSSITDSTMSLNIITVTLNMERHHFLGISIVGQSNDRGDGGIYIGSIMKGGAVAADGRIEPGDMLLQVNDVNFENMSNDDAVRVLREIVSQTGPISLTVAKCWDPTPRSYFTIPRADPVRPIDPAAWLSHTAALTGALPRYGTSPCSSAITRTSSSSLTSSVPGAPQLEEAPLTVKSDMSAIVRVMQLEIRDRMWLKITIANAVIGADVVDWLYTHVEGFKERREARKYASSMLKHGFLRHTVNKITFSEQCYYVFGDLCS
B4: full-length (FL) DVL1 (pcDNA3-Flag-mDVL1) (protein, UniProt P51141 1-695)
chain: MAETKIIYHMDEEETPYLVKLPVAPERVTLADFKNVLSNRPVHAYKFFFKSMDQDFGVVKEEIFDDNAKLPCFNGRVVSWLVLAEGAHSDAGSQGTDSHTDLPPPLERTGGIGDSRPPSFHPNVASSRDGMDNETGTESMVSHRRERARRRNRDEAARTNGHPRGDRRRDLGLPPDSASTVLSSELESSSFIDSDEEDNTSRLSSSTEQSTSSRLVRKHKCRRRKQRLRQTDRASSFSSITDSTMSLNIITVTLNMERHHFLGISIVGQSNDRGDGGIYIGSIMKGGAVAADGRIEPGDMLLQVNDVNFENMSNDDAVRVLREIVSQTGPISLTVAKCWDPTPRSYFTIPRADPVRPIDPAAWLSHTAALTGALPRYGTSPCSSAITRTSSSSLTSSVPGAPQLEEAPLTVKSDMSAIVRVMQLPDSGLEIRDRMWLKITIANAVIGADVVDWLYTHVEGFKERREARKYASSMLKHGFLRHTVNKITFSEQCYYVFGDLCSNLASLNLNSGSSGASDQDTLAPLPHPSVPWPLGQGYPYQYPGPPPCFPPAYQDPGFSCGSGSAGSQQSEGSKSSGSTRSSHRTPGREERRATGAGGSGSESDHTVPSGSGSTGWWERPVSQLSRGSSPRSQASAVAPGLPPLHPLTKAYAVVGGPPGGPPVRELAAVPPELTGSRQSFQKAMGNPCEFFVDIM

In one experiment the target is CK1ε (endogenous) (human (endogenous in HEK293)) (UniProt P49674). The experiment is described as follows: co-IP; semiendogenous: DVL KO HEK293 cells transfected with DVL1 plasmids, lysate; immunoprecipitation of endogenous axin1 or CK1ε with 1 μg antibody and protein G-Sepharose, overnight, 6 washes; cells with control or Wnt3a treatment; unspecific IgG as negative control.
On to B1, for which the binding result is given as “binds”.
Regarding B2, the binding entry is “binds”.
The same measure, in the same setting: in the case of B3 it was “binds weakly”; in that of B4, “binds”.

The target in another experiment is axin1 (endogenous) (human (endogenous in HEK293)) (UniProt O15169). The description is as above.
On to B1, for which the binding result is given as “binds”.
On the same count and under the same terms, under B2 stands “binds”; under B3, “binds weakly”.
Still for that read-out and setting: under B4 stands “binds”.
